Some of the results follow.
Columns and labels:
Test in all cases: glycan array binding signal (z-score within array); higher = stronger binding
Conditions in all cases: glycan notation: IUPAC condensed, linker removed
[1] = target: Fuc(a1-2)[Gal(a1-3)]Gal(b1-4)[Fuc(a1-3)]GlcNAc(b1-3)GalNAc
Summary of the method: (§1)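 Columns mapping to the same glycan were averaged after glycan names were converted to IUPAC-condensed notation. The data come from 3228 arrays in the Consortium for Functional Glycomics database, limited to those with an available protein sequence. Binding is reported as a within-array Z-score averaged across arrays of one protein sequence and across linkers.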

[2] = target: Fuc(a1-2)[Gal(a1-4)]Gal(b1-4)GlcNAc
Summary of the method: as §1

[3] = target: Fuc(a1-2)[GalNAc(a1-3)]Gal
Summary of the method: as §1

[4] = target: Fuc(a1-2)[GalNAc(a1-3)]Gal(b1-3)GalNAc(a1-3)[Fuc(a1-2)]Gal(b1-4)GlcNAc
Summary of the method: as §1

[5] = target: Fuc(a1-2)[GalNAc(a1-3)]Gal(b1-3)GalNAc(b1-3)Gal(a1-4)Gal(b1-4)Glc
Summary of the method: as §1

[6] = target: Fuc(a1-2)[GalNAc(a1-3)]Gal(b1-3)GlcNAc
Summary of the method: as §1

[7] = target: Fuc(a1-2)[GalNAc(a1-3)]Gal(b1-3)GlcNAc(b1-2)Man(a1-3)[Fuc(a1-2)[GalNAc(a1-3)]Gal(b1-3)GlcNAc(b1-2)Man(a1-6)]Man(b1-4)GlcNAc(b1-4)GlcNAc
Summary of the method: as §1

[8] = target: Fuc(a1-2)[GalNAc(a1-3)]Gal(b1-3)GlcNAc(b1-2)Man(a1-3)[Fuc(a1-2)[GalNAc(a1-3)]Gal(b1-3)GlcNAc(b1-2)Man(a1-6)]Man(b1-4)GlcNAc(b1-4)[Fuc(a1-6)]GlcNAc
Summary of the method: as §1

[9] = target: Fuc(a1-2)[GalNAc(a1-3)]Gal(b1-3)GlcNAc(b1-3)GalNAc
Summary of the method: as §1

[10] = target: Fuc(a1-2)[GalNAc(a1-3)]Gal(b1-3)GlcNAc(b1-6)GalNAc
Summary of the method: as §1

[11] = target: Fuc(a1-2)[GalNAc(a1-3)]Gal(b1-4)Glc
Summary of the method: as §1

[12] = target: Fuc(a1-2)[GalNAc(a1-3)]Gal(b1-4)GlcNAc
Summary of the method: as §1

[13] = target: Fuc(a1-2)[GalNAc(a1-3)]Gal(b1-4)GlcNAc(b1-2)Man
Summary of the method: as §1

[14] = target: Fuc(a1-2)[GalNAc(a1-3)]Gal(b1-4)GlcNAc(b1-2)Man(a1-3)[Fuc(a1-2)[GalNAc(a1-3)]Gal(b1-4)GlcNAc(b1-2)Man(a1-6)]Man(b1-4)GlcNAc(b1-4)GlcNAc
Summary of the method: as §1

[15] = target: Fuc(a1-2)[GalNAc(a1-3)]Gal(b1-4)GlcNAc(b1-2)Man(a1-3)[Fuc(a1-2)[GalNAc(a1-3)]Gal(b1-4)GlcNAc(b1-2)Man(a1-6)]Man(b1-4)GlcNAc(b1-4)[Fuc(a1-6)]GlcNAc
Summary of the method: as §1

[16] = target: Fuc(a1-2)[GalNAc(a1-3)]Gal(b1-4)GlcNAc(b1-3)Gal(b1-4)GlcNAc
Summary of the method: as §1

[17] = target: Fuc(a1-2)[GalNAc(a1-3)]Gal(b1-4)GlcNAc(b1-3)Gal(b1-4)GlcNAc(b1-3)Gal(b1-4)GlcNAc
Summary of the method: as §1

[18] = target: Fuc(a1-2)[GalNAc(a1-3)]Gal(b1-4)GlcNAc(b1-3)GalNAc
Summary of the method: as §1

[19] = target: Fuc(a1-2)[GalNAc(a1-3)]Gal(b1-4)GlcNAc(b1-3)[Fuc(a1-2)[GalNAc(a1-3)]Gal(b1-4)GlcNAc(b1-6)]GalNAc
Summary of the method: as §1

[20] = target: Fuc(a1-2)[GalNAc(a1-3)]Gal(b1-4)GlcNAc(b1-6)GalNAc
Summary of the method: as §1

[21] = target: Fuc(a1-2)[GalNAc(a1-3)]Gal(b1-4)[Fuc(a1-3)]GlcNAc
Summary of the method: as §1

[22] = target: Fuc(a1-2)[GalNAc(a1-3)]Gal(b1-4)[Fuc(a1-3)]GlcNAc(b1-3)GalNAc
Summary of the method: as §1

[23] = target: Fuc(a1-2)[GalNAc(a1-4)]Gal(b1-4)GlcNAc
Summary of the method: as §1

[24] = target: Fuc(a1-2)[GalNAc(b1-3)]Gal
Summary of the method: as §1

Fuc(a1-3)GlcNAc = target: Fuc(a1-3)GlcNAc
Summary of the method: as §1

[25] = target: Fuc(a1-3)[Gal(b1-4)]Glc6S
Summary of the method: as §1

[26] = target: Fuc(a1-3)[Gal(b1-4)]GlcNAc
Summary of the method: as §1

[27] = target: Fuc(a1-3)[Gal(b1-4)]GlcNAc(b1-2)Man
Summary of the method: as §1

[28] = target: Fuc(a1-3)[Gal(b1-4)]GlcNAc(b1-2)Man(a1-3)[Fuc(a1-3)[Gal(b1-4)]GlcNAc(b1-2)Man(a1-6)]Man(b1-4)GlcNAc(b1-4)GlcNAc
Summary of the method: as §1

[29] = target: Fuc(a1-3)[Gal(b1-4)]GlcNAc(b1-2)Man(a1-3)[Fuc(a1-3)[Gal(b1-4)]GlcNAc(b1-2)Man(a1-6)]Man(b1-4)GlcNAc(b1-4)[Fuc(a1-6)]GlcNAc
Summary of the method: as §1

[30] = target: Fuc(a1-3)[Gal(b1-4)]GlcNAc(b1-3)Gal(b1-3)[Fuc(a1-4)]GlcNAc
Summary of the method: as §1

[31] = target: Fuc(a1-3)[Gal(b1-4)]GlcNAc(b1-3)Gal(b1-4)[Fuc(a1-3)]GlcNAc
Summary of the method: as §1

[32] = target: Fuc(a1-3)[Gal(b1-4)]GlcNAc(b1-3)Gal(b1-4)[Fuc(a1-3)]GlcNAc(b1-3)Gal(b1-4)[Fuc(a1-3)]GlcNAc
Summary of the method: as §1

[33] = target: Fuc(a1-3)[Gal(b1-4)]GlcNAc(b1-3)GalNAc
Summary of the method: as §1

[34] = target: Fuc(a1-3)[Gal(b1-4)]GlcNAc(b1-6)GalNAc
Summary of the method: as §1

[35] = target: Fuc(a1-3)[Gal(b1-4)]GlcNAc(b1-6)[Gal(b1-3)GlcNAc(b1-3)]Gal(b1-4)Glc
Summary of the method: as §1

[36] = target: Fuc(a1-3)[Gal(b1-4)]GlcNAc6S
Summary of the method: as §1

[37] = target: Fuc(a1-3)[Gal3S(b1-4)]Glc
Summary of the method: as §1

B1: Erv46-EDTA (Saccharomyces cerevisiae), P39727 (protein)
chain: MKFLVNVALVFMVVYISYIYAAAPEHHHHHHDYDIPTTENLYFQGAMDSVVTRPQLVVDRDRHAKLELNMDVTFPSMPCDLVNLDIMDDSGEMQLDILDAGFTMSRLNSEGRPVGDATELHVGGNGDGTAPVNNDPNYCGPCYGAKDQSQNENLAQEEKVCCQDCDAVRSAYLEAGWAFFDGKNIEQCEREGYVSKINEHLNEGCRIKGSAQINRIQGNLHFAPGKPYQNAYGHFHDTSLYDKTSNLNFNHIINHLSFGKPIQSHSKLLGNDKRHGGAVVATSPLDGRQVFPDRNTHFHQFSYFAKIVPTRYEYLDNVVIETAQFSATFHSRPLAGGRDKDHPNTLHVRGGIPGMFVFFEMSPLKVINKEQ
glycan array binding signal (z-score) [1]: 0.181 | glycan array binding signal (z-score) [2]: -0.193 | glycan array binding signal (z-score) [3]: -0.619 | glycan array binding signal (z-score) [4]: -0.454 | glycan array binding signal (z-score) [5]: -0.284 | glycan array binding signal (z-score) [6]: -0.201 | glycan array binding signal (z-score) [7]: 0.12 | glycan array binding signal (z-score) [8]: 0.038 | glycan array binding signal (z-score) [9]: 0.101 | glycan array binding signal (z-score) [10]: -0.826 | glycan array binding signal (z-score) [11]: -0.136 | glycan array binding signal (z-score) [12]: -0.358 | glycan array binding signal (z-score) [13]: -0.576 | glycan array binding signal (z-score) [14]: 0.068 | glycan array binding signal (z-score) [15]: 0.123 | glycan array binding signal (z-score) [16]: 0.084 | glycan array binding signal (z-score) [17]: -0.164 | glycan array binding signal (z-score) [18]: -0.407 | glycan array binding signal (z-score) [19]: -0.525 | glycan array binding signal (z-score) [20]: -0.12 | glycan array binding signal (z-score) [21]: 1.54 | glycan array binding signal (z-score) [22]: 1.58 | glycan array binding signal (z-score) [23]: -0.433 | glycan array binding signal (z-score) [24]: 0.043 | glycan array binding signal (z-score) (Fuc(a1-3)GlcNAc): 0.257 | glycan array binding signal (z-score) [25]: 0.276 | glycan array binding signal (z-score) [26]: 0.177 | glycan array binding signal (z-score) [27]: -0.264 | glycan array binding signal (z-score) [28]: -0.518 | glycan array binding signal (z-score) [29]: 0.26 | glycan array binding signal (z-score) [30]: -0.392 | glycan array binding signal (z-score) [31]: 1.01 | glycan array binding signal (z-score) [32]: 0.026 | glycan array binding signal (z-score) [33]: 0.767 | glycan array binding signal (z-score) [34]: 1.43 | glycan array binding signal (z-score) [35]: -0.635 | glycan array binding signal (z-score) [36]: -0.007 | glycan array binding signal (z-score) [37]: 0.185
